Reference: paper PMC12227070
Results are given in words; binding and its absence hold for the method and conditions named. Binding can be weak; no strength is given. Sequences can lack the tags named with a protein.

Molecular target: T1, GFP-FKBP-Rab25 (UniProt P57735)
T1 sequence: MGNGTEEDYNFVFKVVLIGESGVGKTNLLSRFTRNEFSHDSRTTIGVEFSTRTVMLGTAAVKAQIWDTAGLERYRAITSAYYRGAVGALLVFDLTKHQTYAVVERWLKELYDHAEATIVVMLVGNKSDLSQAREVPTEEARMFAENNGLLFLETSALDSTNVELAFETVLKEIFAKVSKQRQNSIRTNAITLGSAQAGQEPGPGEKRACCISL
Test: knock-sideways relocalisation; A2780 nucleofected with pMito-iRFP670-FRB and GFP-FKBP-Rab25 or GFP-FKBP; 200 nM rapamycin for 4 hours; fixed, stained for FMNL1; FMNL1 intensity in mitochondria against cell body

## FMNL1 (formin-like protein 1) (from UniProt O95466-2)
  binding: binds weakly
